Experimental data published in the supplement of paper PMC10849652.
The other results are listed elsewhere or left out.

The chains behind the UniProt entries cited, without tags or fusion partners. Where a name states a change or a piece, a line headed by the entry shows the natural chain unless it says otherwise.
UniProt P25786: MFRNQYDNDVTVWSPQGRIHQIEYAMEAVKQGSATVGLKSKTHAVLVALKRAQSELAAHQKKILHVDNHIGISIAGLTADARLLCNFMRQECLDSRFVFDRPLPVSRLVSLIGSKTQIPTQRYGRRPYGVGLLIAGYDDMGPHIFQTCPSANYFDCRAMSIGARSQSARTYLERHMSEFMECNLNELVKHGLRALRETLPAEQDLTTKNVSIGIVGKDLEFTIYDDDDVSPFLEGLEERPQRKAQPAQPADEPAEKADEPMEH
UniProt Q00577: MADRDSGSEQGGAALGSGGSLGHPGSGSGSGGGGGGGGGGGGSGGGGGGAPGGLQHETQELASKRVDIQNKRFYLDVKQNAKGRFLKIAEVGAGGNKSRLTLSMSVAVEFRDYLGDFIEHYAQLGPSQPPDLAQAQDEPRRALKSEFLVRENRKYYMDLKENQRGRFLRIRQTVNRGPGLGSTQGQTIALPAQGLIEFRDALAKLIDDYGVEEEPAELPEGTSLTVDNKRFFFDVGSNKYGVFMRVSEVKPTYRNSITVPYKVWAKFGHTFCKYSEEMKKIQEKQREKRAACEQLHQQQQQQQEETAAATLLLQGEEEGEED
UniProt Q15185: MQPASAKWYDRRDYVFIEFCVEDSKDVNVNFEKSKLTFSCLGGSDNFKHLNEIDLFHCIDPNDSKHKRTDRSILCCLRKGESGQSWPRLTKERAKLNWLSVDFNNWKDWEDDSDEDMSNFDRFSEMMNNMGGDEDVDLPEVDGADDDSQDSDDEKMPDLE
UniProt Q8N8N7: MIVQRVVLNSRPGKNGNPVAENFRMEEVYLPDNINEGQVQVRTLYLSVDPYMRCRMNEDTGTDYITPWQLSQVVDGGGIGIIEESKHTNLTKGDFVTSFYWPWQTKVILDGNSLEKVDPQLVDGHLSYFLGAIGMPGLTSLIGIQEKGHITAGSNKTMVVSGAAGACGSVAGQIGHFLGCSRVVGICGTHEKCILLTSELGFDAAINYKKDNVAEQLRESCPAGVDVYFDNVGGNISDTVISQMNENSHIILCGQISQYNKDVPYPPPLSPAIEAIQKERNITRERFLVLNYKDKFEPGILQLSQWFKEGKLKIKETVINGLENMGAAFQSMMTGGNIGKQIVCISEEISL
UniProt O00233: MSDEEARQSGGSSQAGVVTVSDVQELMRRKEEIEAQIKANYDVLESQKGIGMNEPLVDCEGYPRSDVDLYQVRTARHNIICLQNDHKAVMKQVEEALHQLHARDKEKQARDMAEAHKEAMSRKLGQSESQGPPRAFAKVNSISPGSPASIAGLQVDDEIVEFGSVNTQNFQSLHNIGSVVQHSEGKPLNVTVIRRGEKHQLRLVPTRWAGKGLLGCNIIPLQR
UniProt Q05209: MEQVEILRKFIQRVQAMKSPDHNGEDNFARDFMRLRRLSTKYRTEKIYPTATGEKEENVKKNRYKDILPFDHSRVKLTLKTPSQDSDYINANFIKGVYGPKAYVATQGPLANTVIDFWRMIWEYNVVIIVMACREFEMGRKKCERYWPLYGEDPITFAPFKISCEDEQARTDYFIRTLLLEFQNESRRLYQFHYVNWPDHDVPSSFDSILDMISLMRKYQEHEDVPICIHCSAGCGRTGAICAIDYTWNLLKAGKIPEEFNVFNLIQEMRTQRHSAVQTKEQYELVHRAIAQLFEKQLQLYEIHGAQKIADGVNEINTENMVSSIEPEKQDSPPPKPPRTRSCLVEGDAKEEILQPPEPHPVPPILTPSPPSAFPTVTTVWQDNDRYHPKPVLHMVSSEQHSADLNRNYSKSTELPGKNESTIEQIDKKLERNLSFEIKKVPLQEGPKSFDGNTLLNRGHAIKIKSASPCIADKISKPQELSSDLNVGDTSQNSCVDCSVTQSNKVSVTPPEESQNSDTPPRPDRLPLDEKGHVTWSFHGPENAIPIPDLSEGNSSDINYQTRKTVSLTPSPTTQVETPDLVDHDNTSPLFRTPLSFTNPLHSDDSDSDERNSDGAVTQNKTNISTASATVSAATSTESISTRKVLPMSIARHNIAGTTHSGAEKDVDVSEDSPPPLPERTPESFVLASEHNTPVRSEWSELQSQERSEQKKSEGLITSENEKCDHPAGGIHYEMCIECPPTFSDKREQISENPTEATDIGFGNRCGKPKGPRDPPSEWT
UniProt P25787: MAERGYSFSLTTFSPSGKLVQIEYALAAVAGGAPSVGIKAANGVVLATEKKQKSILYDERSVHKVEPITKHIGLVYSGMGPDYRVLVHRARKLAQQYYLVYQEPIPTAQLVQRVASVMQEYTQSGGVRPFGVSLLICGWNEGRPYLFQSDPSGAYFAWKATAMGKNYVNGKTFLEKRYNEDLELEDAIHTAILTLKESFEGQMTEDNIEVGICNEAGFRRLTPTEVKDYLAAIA
UniProt O75832: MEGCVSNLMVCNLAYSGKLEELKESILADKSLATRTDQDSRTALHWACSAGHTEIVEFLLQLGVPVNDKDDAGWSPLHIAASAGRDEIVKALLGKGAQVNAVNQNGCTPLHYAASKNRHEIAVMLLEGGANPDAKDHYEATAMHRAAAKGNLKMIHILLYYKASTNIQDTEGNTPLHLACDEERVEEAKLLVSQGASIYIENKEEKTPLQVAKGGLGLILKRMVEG
UniProt Q6PGN9: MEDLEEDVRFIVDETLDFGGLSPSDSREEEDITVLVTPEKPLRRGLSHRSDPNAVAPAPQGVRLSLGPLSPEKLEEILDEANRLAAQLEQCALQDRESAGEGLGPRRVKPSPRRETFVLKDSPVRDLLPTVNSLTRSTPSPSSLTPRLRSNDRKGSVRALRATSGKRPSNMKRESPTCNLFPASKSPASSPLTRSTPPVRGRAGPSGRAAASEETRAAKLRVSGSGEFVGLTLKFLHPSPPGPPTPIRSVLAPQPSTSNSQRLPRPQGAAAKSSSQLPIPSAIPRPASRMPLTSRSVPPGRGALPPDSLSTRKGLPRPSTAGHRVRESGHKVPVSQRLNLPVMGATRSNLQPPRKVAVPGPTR
UniProt P28066: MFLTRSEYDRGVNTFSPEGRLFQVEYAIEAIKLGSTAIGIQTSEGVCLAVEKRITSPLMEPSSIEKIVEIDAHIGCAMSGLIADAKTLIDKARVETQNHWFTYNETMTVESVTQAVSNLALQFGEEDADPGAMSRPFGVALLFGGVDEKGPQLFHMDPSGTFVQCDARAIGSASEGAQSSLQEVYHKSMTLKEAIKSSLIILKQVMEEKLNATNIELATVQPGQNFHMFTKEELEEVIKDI
UniProt Q13332: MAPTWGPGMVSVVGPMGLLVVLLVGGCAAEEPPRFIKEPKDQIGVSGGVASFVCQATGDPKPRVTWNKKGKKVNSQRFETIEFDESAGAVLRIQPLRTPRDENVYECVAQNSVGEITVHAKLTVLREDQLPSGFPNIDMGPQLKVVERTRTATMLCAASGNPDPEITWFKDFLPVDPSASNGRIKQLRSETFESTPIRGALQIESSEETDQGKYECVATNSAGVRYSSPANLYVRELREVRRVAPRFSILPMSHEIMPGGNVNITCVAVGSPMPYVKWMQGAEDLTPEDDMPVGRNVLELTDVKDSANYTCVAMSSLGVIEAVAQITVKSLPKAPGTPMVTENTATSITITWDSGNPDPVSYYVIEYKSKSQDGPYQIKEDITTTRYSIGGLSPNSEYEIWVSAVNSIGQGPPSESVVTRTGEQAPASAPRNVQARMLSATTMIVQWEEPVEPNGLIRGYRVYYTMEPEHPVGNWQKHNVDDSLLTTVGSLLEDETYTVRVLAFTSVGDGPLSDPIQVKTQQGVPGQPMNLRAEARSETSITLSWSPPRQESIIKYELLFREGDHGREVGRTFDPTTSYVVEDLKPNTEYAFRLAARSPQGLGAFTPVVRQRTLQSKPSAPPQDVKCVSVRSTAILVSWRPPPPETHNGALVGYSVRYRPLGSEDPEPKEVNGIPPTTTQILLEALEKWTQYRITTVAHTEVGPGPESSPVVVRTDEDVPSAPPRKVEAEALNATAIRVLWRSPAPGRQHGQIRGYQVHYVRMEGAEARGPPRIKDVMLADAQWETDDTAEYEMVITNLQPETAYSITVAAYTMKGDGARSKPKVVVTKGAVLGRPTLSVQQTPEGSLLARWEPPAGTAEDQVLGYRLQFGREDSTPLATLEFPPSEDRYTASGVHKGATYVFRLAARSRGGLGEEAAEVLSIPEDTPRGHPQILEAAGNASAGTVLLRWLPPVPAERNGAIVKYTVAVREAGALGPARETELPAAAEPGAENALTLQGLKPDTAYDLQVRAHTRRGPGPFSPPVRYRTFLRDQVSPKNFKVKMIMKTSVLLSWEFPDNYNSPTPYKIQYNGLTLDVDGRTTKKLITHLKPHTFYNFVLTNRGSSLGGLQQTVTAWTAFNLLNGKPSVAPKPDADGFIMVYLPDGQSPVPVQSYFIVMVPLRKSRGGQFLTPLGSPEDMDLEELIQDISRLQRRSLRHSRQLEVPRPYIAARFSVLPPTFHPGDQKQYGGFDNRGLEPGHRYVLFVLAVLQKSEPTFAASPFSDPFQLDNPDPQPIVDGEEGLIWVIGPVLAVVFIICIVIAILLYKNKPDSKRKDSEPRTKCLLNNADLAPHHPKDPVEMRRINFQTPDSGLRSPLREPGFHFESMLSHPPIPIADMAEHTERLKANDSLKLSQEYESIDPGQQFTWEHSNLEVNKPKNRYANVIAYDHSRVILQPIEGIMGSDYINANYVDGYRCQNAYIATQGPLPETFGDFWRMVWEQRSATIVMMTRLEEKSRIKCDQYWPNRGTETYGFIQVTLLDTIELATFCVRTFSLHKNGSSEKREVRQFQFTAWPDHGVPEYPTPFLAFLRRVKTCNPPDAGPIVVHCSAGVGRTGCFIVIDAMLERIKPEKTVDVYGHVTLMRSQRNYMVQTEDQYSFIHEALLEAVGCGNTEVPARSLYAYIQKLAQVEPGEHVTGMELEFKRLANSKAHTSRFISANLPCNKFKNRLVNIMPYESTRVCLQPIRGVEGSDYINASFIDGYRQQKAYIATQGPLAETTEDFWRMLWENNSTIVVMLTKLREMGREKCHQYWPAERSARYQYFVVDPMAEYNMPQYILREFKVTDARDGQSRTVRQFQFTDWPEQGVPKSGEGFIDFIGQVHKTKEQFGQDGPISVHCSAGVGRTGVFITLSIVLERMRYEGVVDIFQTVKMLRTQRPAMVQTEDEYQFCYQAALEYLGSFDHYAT
UniProt Q8WXF1: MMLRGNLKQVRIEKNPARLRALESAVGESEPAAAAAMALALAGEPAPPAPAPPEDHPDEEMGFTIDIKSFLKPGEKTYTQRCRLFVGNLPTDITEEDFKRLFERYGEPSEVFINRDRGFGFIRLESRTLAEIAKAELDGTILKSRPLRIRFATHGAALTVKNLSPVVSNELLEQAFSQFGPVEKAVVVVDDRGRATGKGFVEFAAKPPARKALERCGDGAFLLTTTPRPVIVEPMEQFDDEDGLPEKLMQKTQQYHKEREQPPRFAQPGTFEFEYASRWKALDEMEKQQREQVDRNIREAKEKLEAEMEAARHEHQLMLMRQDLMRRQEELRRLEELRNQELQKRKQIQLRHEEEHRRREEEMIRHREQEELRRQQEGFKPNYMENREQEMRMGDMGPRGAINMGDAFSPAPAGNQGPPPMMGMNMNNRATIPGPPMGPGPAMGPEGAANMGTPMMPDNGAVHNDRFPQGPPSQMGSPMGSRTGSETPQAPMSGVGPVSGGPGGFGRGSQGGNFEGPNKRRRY
UniProt Q16401: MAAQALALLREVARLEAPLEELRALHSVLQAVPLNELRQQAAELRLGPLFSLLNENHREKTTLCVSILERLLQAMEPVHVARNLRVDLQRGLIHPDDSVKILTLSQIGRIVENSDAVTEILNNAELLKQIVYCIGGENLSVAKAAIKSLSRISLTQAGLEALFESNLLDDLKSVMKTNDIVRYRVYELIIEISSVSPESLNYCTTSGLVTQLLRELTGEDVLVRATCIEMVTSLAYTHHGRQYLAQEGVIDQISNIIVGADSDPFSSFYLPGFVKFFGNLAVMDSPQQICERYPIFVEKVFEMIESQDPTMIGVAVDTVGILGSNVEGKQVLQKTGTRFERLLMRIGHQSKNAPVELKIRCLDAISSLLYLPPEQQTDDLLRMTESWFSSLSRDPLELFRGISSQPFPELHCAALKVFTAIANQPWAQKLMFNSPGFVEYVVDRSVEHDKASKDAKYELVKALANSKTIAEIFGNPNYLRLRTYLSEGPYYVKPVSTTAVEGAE
UniProt O00232: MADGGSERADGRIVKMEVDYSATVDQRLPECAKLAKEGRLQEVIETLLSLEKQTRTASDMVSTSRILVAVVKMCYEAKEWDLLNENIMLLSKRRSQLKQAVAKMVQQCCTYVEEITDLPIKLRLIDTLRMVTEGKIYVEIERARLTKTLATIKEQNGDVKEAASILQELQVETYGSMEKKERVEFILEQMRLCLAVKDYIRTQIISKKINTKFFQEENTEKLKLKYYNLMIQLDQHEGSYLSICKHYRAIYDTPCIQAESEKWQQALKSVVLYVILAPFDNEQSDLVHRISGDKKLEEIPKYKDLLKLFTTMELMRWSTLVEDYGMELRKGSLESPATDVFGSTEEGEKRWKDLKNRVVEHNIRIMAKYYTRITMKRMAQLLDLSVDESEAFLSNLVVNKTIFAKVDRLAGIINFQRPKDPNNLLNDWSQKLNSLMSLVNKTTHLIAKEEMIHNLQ

How the values were obtained:
Assay in all cases: log2 fold change, soluble protein after heating vs DMSO (PISA); higher = thermal stabilisation; K562 lysate, 10 uM; active = over 0.2 and 3.5 SD of the protein, either way, in both replicates (recomputed)
[1] = compound: C#Cc1cccc(Nc2ncnc3cc(OCCOC)c(OCCOC)cc23)c1 [erlotinib]
Outline: (§1)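 Quantification was by TMTpro 16plex LC-MS/MS with equalised channel sums, applied to the supernatant after 21,000xg for 90 min. Samples were crude K562 extract at 1 mg/mL protein in PBS pH 7.4 with 1 mM MgCl2, treated with 10 μM compound for 30 min, heated for 3 min across 48°C-58°C, pooled and brought to 0.5% NP-40 at 4°C. Values are log-two fold changes in thermal stability relative to solvent controls, from duplicates.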

[2] = compound: C/C(=N\NC(=O)C1=CC(=CC=C1)S(=O)(=O)N2CCOCC2)/C3=C(C=CC(=C3)Cl)O
Outline: as §1

[3] = compound: C1=CC(=CC=C1C2=NC3=C(N2)C=C(C=C3)C(=O)N)OC4=CC=C(C=C4)Cl
Outline: as §1

[4] = compound: C1=CC2=C(C=CC(=C2)/C=C\3/C(=O)NC(=NCC4=CC=CS4)S3)N=C1
Outline: as §1

[5] = compound: C1=CC2=NC=CN=C2C=C1/C=C/3\C(=O)NC(=O)S3
Outline: as §1

[6] = compound: C1=CC=C(C=C1)C2=NC(=C(N2)C3=CC=NC=C3)C4=CC(=C(C=C4)Cl)O
Outline: as §1

[7] = compound: C1=CC=C2C(=C1)C3=NNC4=CC=CC(=C43)C2=O
Outline: as §1

[8] = compound: C1CCN(C1)C(=O)NC2=CC=CC(=C2)NC3=NC=C(C(=N3)NCCC4=CN=CN4)Br
Outline: as §1

[9] = compound: C1CN(CCC1(CC2=CC=C(C=C2)Cl)N)C3=NC=NC4=C3C=CN4
Outline: as §1

[10] = compound: C1COCCN1CCN2C3=CC=CC=C3N=C2NC(=O)C4=CC(=CC=C4)[N+](=O)[O-] [IRAK-1-4 Inhibitor I]
Outline: as §1

[11] = compound: C=CC(=O)N1CCC[C@@H](n2nc(-c3ccc(Oc4ccccc4)cc3)c3c(N)ncnc32)C1 [ibrutinib]
Outline: as §1

[12] = compound: CC(=O)c1cnc2ccc(-c3cc(Cl)c(O)c(Cl)c3)nc2c1N[C@H]1CC[C@H](CN(C)C)CC1
Outline: as §1

[13] = compound: CC(C)(C)Cn1c(N)nc2ccc(-c3[nH]c(C(C)(C)C)nc3-c3ccc(F)cc3)nc21 [ralimetinib]
Outline: as §1

[14] = compound: CC(C)(O)CC(=O)NCCn1ccc2ncnc(Nc3ccc(Oc4cccc(C(F)(F)F)c4)c(Cl)c3)c21
Outline: as §1

[15] = compound: CC(C)C1=C2N=C(C=C(N2N=C1)NCC3=CC=CC=C3)NCCCCCCN
Outline: as §1

[16] = compound: CC1=C(C(CC(=O)N1)C2=CC=C(C=C2)C(F)(F)F)C(=O)NC3=C(C=C4C(=C3)C=NN4)F
Outline: as §1

[17] = compound: CC1=C(C2=C(C=C1)C(=O)C3=CC=CC=C3N2CCCN)C
Outline: as §1

[18] = compound: CC1=C(C=C(C=C1)NC(=O)C2=CC(=CC=C2)C(C)(C)C#N)NC3=CC4=C(C=C3)N=CN(C4=O)C
Outline: as §1

[19] = compound: CC1=C(C=C(C=C1)NC(=O)C2=CC(=CC=C2)N(C)C)NC(=O)C3=CC=C(C=C3)O
Outline: as §1

[20] = compound: CC1=CC=C(C=C1)SC2=C3C=C(SC3=CN=C2)C(=O)N
Outline: as §1

Measured: log2 fold change

PSMA1 isoform 2 (UniProt P25786)
inactive: [1] -0.008 | [2] -0.109 | [3] 0.029 | [4] 0.001 | [5] -0.013 | [6] 0.009 | [7] 0.031 | [8] 0.002 | [9] 0.002 | [10] 0.019 | [11] -0.025 | [12] 0.001 | [13] -0.008 | [14] 0.016 | [15] 0.005 | [16] -0.014 | [17] 0.014 | [18] 0.003 | [19] 0.004 | [20] -0.006

PURA (UniProt Q00577)
inactive: [1] -0.042 | [2] -0.134 | [3] 0.048 | [4] -0.029 | [5] -0.022 | [6] 0.009 | [7] 0.079 | [8] -0.015 | [9] -0.005 | [10] -0.009 | [11] -0.017 | [12] 0.043 | [13] -0.022 | [14] -0.008 | [15] -0.009 | [16] 0.044 | [17] -0.06 | [18] -0.075 | [19] 0.074 | [20] -0.02

PTGES3 (UniProt Q15185)
inactive: [1] 0.034 | [2] 0.013 | [3] -0.005 | [4] -0.021 | [5] -0.006 | [6] 0.029 | [7] 0.001 | [8] 0.021 | [9] 0.014 | [10] 0.022 | [11] 0.013 | [12] -0.001 | [13] 0.004 | [14] 0.007 | [15] 0.002 | [16] -0.026 | [17] 0.008 | [18] 0.021 | [19] -0.004 | [20] 0.007

PTGR2 (UniProt Q8N8N7)
inactive: [1] 0.01 | [2] 0.064 | [3] 0.001 | [4] 0.065 | [5] -0.041 | [6] 0.054 | [7] 0.016 | [8] 0.015 | [9] 0.001 | [10] -0.035 | [11] -0.006 | [12] 0.026 | [13] 0.019 | [14] 0.068 | [15] -0.042 | [16] -0.011 | [17] -0.024 | [18] 0.006 | [19] 0.037 | [20] 0.029

PSMD9 (UniProt O00233)
inactive: [1] -0.014 | [2] 0.011 | [3] 0.04 | [4] -0.006 | [5] 0.012 | [6] -0.004 | [7] -0.036 | [8] 0.02 | [9] 0.031 | [10] -0.012 | [11] -0.031 | [12] 0.008 | [13] -0.01 | [14] -0.011 | [15] 0.023 | [16] -0.022 | [17] -0.038 | [18] 0.044 | [19] -0.024 | [20] -0.04

PTPN12 (UniProt Q05209)
inactive: [1] 0.023 | [2] -0.006 | [3] 0.015 | [4] 0.02 | [5] -0.004 | [6] -0.005 | [7] -0.011 | [8] -0.014 | [9] 0.017 | [10] 0.011 | [11] 0.006 | [12] 0.003 | [13] 0.036 | [14] -0.024 | [15] 0.003 | [16] 0.008 | [17] -0.032 | [18] 0.001 | [19] 0.026 | [20] -0.018

PSMA2 (UniProt P25787)
inactive: [1] 0.007 | [2] 0.023 | [3] 0.012 | [4] 0.003 | [5] 0.004 | [6] 0.003 | [7] 0.025 | [8] 0.039 | [9] 0.008 | [10] 0.017 | [11] -0.009 | [12] 0.006 | [13] -0.013 | [14] -0.004 | [15] 0.005 | [16] -0.028 | [17] 0.008 | [18] 0.007 | [19] 0.009 | [20] 0.008

PSMD10 (UniProt O75832)
inactive: [1] 0.024 | [2] 0.038 | [3] -0.028 | [4] -0.002 | [5] 0.001 | [6] -0.018 | [7] 0.014 | [8] 0.039 | [9] 0.06 | [10] -0.012 | [11] -0.002 | [12] 0.005 | [13] 0.007 | [14] -0.016 | [15] 0.028 | [16] -0.07 | [17] 0.025 | [18] 0.005 | [19] -0.012 | [20] 0.01

PSRC1 (UniProt Q6PGN9)
inactive: [1] -0.022 | [2] 0.005 | [3] -0.049 | [4] 0.114 | [5] 0.005 | [6] 0.075 | [7] 0.033 | [8] 0.078 | [9] -0.048 | [10] 0.008 | [11] 0.138 | [12] 0.017 | [13] -0.006 | [14] -0.013 | [15] 0.049 | [16] 0.02 | [17] -0.081 | [18] 0.163 | [19] -0.052 | [20] -0.002

PRPS1 (UniProt B1ALA9)
inactive: [1] -0.001 | [2] 0.039 | [3] 0.019 | [4] -0.037 | [5] 0.043 | [6] -0.003 | [7] 0.028 | [8] -0.05 | [9] 0.003 | [10] 0.015 | [11] -0.01 | [12] -0.015 | [13] -0.017 | [14] -0.001 | [15] -0.011 | [16] -0.01 | [17] 0.04 | [18] 0 | [19] -0.022 | [20] -0.008

PSMA5 (UniProt P28066)
inactive: [1] 0.002 | [2] -0.031 | [3] 0.027 | [4] 0.01 | [5] -0.02 | [6] 0.003 | [7] -0.012 | [8] 0.007 | [9] 0.02 | [10] 0.005 | [11] -0.026 | [12] -0.019 | [13] 0.003 | [14] -0.027 | [15] 0.009 | [16] -0.032 | [17] -0.024 | [18] 0.035 | [19] -0.003 | [20] -0.009

PTPRS isoform 3 (UniProt Q13332)
inactive: [1] -0.011 | [2] 0.029 | [3] 0.035 | [4] -0.153 | [5] -0.024 | [6] 0.006 | [7] -0.08 | [8] -0.058 | [9] 0.033 | [10] 0.064 | [11] 0.051 | [12] -0.019 | [13] 0.025 | [14] -0.002 | [15] -0.015 | [16] 0.025 | [17] -0.031 | [18] 0.039 | [19] 0.015 | [20] 0.019

PSPC1 (UniProt Q8WXF1)
inactive: [1] -0.018 | [2] -0.053 | [3] 0.019 | [4] 0.017 | [5] -0.004 | [6] -0.001 | [7] 0.01 | [8] -0.016 | [9] -0.028 | [10] 0 | [11] 0.019 | [12] -0.006 | [13] 0.022 | [14] 0.002 | [15] 0.011 | [16] -0.003 | [17] -0.001 | [18] 0 | [19] 0.015 | [20] -0.026

Fetched one by one from the list above (2):
PTPRS isoform 3 (UniProt Q13332)
inactive: [1] -0.011 | [2] 0.029 | [3] 0.035 | [4] -0.153 | [5] -0.024 | [6] 0.006 | [7] -0.08 | [8] -0.058 | [9] 0.033 | [10] 0.064 | [11] 0.051 | [12] -0.019 | [13] 0.025 | [14] -0.002 | [15] -0.015 | [16] 0.025 | [17] -0.031 | [18] 0.039 | [19] 0.015 | [20] 0.019

PURA (UniProt Q00577)
inactive: [1] -0.042 | [2] -0.134 | [3] 0.048 | [4] -0.029 | [5] -0.022 | [6] 0.009 | [7] 0.079 | [8] -0.015 | [9] -0.005 | [10] -0.009 | [11] -0.017 | [12] 0.043 | [13] -0.022 | [14] -0.008 | [15] -0.009 | [16] 0.044 | [17] -0.06 | [18] -0.075 | [19] 0.074 | [20] -0.02

Remaining list, next part.

PSMG1 (UniProt O95456)
inactive: [1] -0.011 | [2] -0.024 | [3] 0.043 | [4] -0.023 | [5] 0.066 | [6] 0.02 | [7] -0.014 | [8] -0.017 | [9] -0.014 | [10] 0.011 | [11] -0.028 | [12] 0.019 | [13] -0.032 | [14] -0.037 | [15] -0.001 | [16] 0.014 | [17] 0.021 | [18] 0.005 | [19] -0.024 | [20] -0.027

PSMD5 (UniProt Q16401)
inactive: [1] 0.013 | [2] -0.009 | [3] -0.018 | [4] -0.003 | [5] 0.023 | [6] -0.001 | [7] -0.008 | [8] 0.005 | [9] 0.007 | [10] 0.018 | [11] -0.024 | [12] 0.008 | [13] -0.011 | [14] -0.001 | [15] 0.002 | [16] -0.023 | [17] -0.002 | [18] 0.002 | [19] -0.012 | [20] -0.002

PSMD12 (UniProt O00232)
inactive: [1] 0 | [2] 0.02 | [3] -0.018 | [4] -0.011 | [5] -0.014 | [6] 0.002 | [7] 0.012 | [8] 0.001 | [9] -0.005 | [10] -0.01 | [11] -0.001 | [12] 0 | [13] 0.029 | [14] -0.01 | [15] 0.004 | [16] -0.012 | [17] -0.007 | [18] -0.019 | [19] 0.001 | [20] 0.026
